The target in assay [1] is T1, Flag-CNTNAP2-ecto (ectodomain of CNTNAP2) (human) (UniProt Q9UHC6).
T1 sequence: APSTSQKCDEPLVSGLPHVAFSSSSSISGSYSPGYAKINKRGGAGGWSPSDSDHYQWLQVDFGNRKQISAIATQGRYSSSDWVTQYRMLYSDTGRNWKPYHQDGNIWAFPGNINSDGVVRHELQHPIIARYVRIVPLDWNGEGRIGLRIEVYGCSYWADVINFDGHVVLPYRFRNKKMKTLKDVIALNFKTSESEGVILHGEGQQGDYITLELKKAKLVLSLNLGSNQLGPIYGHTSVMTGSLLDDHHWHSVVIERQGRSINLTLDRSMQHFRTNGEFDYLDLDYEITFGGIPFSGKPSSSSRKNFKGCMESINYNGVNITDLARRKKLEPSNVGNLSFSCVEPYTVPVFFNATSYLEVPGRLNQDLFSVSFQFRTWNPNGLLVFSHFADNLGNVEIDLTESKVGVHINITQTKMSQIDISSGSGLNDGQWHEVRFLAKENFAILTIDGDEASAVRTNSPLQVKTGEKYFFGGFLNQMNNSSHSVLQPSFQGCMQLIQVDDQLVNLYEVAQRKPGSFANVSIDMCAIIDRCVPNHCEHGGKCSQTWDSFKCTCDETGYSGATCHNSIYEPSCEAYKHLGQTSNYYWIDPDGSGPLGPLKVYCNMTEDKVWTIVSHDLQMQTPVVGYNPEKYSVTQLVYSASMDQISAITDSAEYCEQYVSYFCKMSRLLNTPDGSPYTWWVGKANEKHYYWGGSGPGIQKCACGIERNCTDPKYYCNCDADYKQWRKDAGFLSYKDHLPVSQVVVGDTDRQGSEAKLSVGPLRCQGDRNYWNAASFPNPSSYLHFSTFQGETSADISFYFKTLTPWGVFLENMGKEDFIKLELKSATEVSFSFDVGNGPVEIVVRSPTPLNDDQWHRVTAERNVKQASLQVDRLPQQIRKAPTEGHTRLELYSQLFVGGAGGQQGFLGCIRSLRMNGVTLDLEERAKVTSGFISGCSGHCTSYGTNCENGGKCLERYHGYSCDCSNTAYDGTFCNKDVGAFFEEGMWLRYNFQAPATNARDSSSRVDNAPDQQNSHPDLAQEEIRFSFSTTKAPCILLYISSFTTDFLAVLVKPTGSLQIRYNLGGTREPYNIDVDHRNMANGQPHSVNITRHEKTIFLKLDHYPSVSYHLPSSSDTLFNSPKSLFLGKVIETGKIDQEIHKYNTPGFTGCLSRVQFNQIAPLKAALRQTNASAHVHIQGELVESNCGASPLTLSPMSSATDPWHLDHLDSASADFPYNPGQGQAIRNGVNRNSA
The experiment in a line: pull-down.

By UniProt entry, the sequences of proteins in these tests, tags left out.
UniProt Q9R0K7: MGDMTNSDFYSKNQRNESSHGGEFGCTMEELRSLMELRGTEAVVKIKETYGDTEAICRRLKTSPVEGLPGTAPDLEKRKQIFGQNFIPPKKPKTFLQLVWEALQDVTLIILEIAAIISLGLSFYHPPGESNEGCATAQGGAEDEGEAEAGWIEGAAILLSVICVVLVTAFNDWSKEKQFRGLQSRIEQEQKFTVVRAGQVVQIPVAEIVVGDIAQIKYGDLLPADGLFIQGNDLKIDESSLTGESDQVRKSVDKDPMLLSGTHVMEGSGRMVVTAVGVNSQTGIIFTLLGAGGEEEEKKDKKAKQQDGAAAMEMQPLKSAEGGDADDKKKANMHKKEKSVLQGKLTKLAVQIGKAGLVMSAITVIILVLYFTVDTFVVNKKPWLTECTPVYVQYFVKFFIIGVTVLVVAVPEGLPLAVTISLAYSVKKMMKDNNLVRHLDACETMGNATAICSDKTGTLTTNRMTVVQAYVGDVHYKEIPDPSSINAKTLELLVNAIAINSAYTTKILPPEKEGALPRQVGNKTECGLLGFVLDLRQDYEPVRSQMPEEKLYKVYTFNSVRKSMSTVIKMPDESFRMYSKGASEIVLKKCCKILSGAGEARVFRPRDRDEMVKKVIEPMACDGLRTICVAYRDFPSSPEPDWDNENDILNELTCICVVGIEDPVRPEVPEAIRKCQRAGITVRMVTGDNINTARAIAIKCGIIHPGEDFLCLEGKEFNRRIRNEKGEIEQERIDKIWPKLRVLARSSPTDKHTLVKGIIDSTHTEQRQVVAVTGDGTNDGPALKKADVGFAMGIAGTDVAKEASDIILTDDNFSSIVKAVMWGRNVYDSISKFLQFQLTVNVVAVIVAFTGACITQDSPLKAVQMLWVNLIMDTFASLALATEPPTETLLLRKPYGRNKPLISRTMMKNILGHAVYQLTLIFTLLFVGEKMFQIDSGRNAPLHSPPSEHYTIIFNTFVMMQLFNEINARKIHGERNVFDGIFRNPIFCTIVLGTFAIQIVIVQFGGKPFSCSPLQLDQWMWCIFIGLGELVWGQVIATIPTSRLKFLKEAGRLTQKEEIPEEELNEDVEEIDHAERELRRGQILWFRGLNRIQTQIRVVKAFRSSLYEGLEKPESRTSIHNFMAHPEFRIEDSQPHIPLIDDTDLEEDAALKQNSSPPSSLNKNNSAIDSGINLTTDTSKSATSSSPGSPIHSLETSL
UniProt Q01814: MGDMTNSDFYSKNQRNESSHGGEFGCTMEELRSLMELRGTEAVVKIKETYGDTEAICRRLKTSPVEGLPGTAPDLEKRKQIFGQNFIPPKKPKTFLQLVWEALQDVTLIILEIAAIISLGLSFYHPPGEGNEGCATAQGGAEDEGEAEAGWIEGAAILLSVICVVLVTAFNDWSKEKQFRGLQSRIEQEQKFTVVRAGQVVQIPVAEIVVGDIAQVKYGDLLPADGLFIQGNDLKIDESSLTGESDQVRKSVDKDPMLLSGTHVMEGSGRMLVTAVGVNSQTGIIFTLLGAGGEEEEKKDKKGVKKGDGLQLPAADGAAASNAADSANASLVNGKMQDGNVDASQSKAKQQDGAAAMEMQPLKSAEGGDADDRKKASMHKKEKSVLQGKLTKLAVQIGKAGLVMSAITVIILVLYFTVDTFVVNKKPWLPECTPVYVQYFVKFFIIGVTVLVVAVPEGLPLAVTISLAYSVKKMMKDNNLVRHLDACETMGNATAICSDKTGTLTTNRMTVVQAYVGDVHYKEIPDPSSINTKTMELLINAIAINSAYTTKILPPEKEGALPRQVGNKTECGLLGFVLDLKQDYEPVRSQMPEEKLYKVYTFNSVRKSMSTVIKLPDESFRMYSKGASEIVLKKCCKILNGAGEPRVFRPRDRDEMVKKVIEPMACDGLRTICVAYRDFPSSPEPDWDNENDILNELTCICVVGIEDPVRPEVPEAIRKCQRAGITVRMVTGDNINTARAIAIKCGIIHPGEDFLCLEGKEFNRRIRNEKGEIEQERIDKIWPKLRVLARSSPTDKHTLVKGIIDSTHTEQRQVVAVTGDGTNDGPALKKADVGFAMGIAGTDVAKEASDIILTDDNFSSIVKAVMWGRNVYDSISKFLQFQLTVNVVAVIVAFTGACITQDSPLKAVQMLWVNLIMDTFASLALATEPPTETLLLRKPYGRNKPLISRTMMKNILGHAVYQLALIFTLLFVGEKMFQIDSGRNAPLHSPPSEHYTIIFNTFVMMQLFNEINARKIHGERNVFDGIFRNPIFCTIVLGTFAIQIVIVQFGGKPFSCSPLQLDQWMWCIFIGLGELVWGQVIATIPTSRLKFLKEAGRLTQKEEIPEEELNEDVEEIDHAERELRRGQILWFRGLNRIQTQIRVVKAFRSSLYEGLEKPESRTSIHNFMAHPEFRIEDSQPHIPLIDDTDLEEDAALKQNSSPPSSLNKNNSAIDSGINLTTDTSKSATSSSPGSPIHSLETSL

The target of assay [2] is T2, 1253* CNTNAP2-ecto (human) (UniProt Q9UHC6).
T2 sequence: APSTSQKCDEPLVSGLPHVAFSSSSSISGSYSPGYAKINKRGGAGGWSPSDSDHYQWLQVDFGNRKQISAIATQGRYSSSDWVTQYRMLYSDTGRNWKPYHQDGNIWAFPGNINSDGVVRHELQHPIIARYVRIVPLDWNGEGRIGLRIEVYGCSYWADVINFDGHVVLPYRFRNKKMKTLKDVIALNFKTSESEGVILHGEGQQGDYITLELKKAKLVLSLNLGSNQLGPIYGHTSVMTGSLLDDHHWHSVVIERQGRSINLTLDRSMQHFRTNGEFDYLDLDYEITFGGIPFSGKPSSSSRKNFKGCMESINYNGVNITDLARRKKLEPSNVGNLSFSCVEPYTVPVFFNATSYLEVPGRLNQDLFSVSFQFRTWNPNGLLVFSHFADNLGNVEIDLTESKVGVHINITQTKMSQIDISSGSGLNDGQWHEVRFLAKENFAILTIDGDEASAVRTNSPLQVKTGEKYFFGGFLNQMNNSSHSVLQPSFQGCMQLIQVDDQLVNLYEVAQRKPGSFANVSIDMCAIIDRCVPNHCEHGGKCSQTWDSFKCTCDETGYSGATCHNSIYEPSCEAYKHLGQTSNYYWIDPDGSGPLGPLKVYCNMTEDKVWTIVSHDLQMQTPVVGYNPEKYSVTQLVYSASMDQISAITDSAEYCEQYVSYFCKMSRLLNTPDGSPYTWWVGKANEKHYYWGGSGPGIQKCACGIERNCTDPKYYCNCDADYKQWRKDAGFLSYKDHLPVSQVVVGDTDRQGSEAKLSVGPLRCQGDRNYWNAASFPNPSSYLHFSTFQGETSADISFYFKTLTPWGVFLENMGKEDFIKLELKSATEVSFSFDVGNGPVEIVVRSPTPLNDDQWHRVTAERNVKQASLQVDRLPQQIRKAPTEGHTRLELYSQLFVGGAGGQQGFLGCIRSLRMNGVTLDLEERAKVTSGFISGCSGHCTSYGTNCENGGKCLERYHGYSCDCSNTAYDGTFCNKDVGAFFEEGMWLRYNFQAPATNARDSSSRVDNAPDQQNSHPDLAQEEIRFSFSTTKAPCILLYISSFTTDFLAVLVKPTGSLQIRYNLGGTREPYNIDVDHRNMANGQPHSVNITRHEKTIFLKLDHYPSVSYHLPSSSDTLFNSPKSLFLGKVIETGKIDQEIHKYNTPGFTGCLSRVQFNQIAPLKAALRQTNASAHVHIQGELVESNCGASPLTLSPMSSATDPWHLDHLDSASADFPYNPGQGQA
The experiment in a line: pull-down.

Results are given in words; binding and its absence hold for the method and conditions named. In cells and extracts the contact can be indirect. Some binding calls cover weakened binding; strength is not graded here. For part of these data: Sequences can lack the tags named with a protein.

“PMCA2 (mouse cortical membranes) (from UniProt Q9R0K7 1-1198)”: the binding entry in assay [1] is on record as “binds”.
With PMCA2w/b (from UniProt Q01814 1-1243), the binding result in assay [2] and in assay [1] was “binds” throughout.
